In article PMC7819943, “Rice protein-binding microarrays: a tool to detect cis-acting elements near promoter regions in rice” one finds binding signal data, which are given here for 42 sequences.

Sequences of proteins named here, by UniProt entry; tags and fusion partners are left off.
UniProt Q0JBA9, entry or part of it: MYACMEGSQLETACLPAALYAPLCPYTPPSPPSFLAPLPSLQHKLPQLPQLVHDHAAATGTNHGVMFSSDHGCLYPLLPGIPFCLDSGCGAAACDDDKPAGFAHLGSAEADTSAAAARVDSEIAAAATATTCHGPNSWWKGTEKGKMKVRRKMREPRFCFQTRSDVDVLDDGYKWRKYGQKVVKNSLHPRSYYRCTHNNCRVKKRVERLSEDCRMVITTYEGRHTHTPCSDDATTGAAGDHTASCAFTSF

The list shows a part of the results.

The test deals with OsWRKY34 (Oryza sativa, UniProt Q0JBA9 1-250). The test can be described thus: protein-binding microarray (RPBM); PBS, 2% BSA, 51.3 ng/ul salmon testes DNA, 50 uM zinc acetate, 200 nM TF, 25 C, 1 h; high values mean tight binding. Conditions: protein: recombinant; tags: N-terminal polyhistidine and DsRed monomer fusion (pET32a); label: CyDye5-dUTP incorporated in the synthesized complementary strand; 3' TTTTT single-stranded linker to array surface; dsDNA, one strand shown. In a few lines:
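An Axon 4000B scanner gave the binding signal as per-feature fluorescence intensity in arbitrary units. This followed washing of a custom Agilent array that had been incubated for 1 h at 25 °C with 200 nM protein in PBS, 2% BSA, salmon testes DNA and 50 µM zinc acetate. The proteins were transcription factors fused at the N-terminus to polyhistidine and DsRed, expressed in E. coli BL21-CodonPlus and purified on Ni–NTA.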
On to “GCTAATTGGGCCTTCAGGTAGGGGTGGGCGTTCGGTCTGACGGAGTCACCTAGTGCAG”, for which the binding signal was 15700 fluorescence intensity (a.u.).

As for “AAATTGTTGTACGGGGTATGTTATACTGGCCAGCTTTGTACGGAGTCACCTAGTGCAG”, the binding signal was 8600 fluorescence intensity (a.u.). For the sequence “TTTTTCATTTGCAAATCGGTACCGTACGTGTTATTTCTCTCGGAGTCACCTAGTGCAG”, the binding signal was 11000 fluorescence intensity (a.u.).

Consider “AGTGTAATCTTGTAATTTTCTTCTGCTCTATCAATAGAACCGGAGTCACCTAGTGCAG”, for which the binding signal is 8360 fluorescence intensity (a.u.). In the case of “GCCCTTGTTTAGTTCCAAACTTTTTTTCAAACTTCCAACTCGGAGTCACCTAGTGCAG” it was 9850 fluorescence intensity (a.u.); in that of “CTGCCTCTTCATGCCGCTTATTAAAGTCTCCACCCTCCGCCGGAGTCACCTAGTGCAG”, 8530 fluorescence intensity (a.u.); in that of “AGTTGTGGACTGGAAGAGAGGGGAGGCATGGGGACAAAGACGGAGTCACCTAGTGCAG”, 9320 fluorescence intensity (a.u.).

With “CCCAAGTTGGTTTCGAGCTCTACATCCATGTGCCTCCACTCGGAGTCACCTAGTGCAG”, the binding signal was 8440 fluorescence intensity (a.u.). Turning to “ACAGCGACCCGATCACTCTCTCACTGTCTCGTTCACGTAGCGGAGTCACCTAGTGCAG”, the binding signal is 8050 fluorescence intensity (a.u.). “GCATCAAACACTCTCATCTATGTTGGGGTTTTCACGTATACGGAGTCACCTAGTGCAG”: the binding signal is 9730 fluorescence intensity (a.u.). In the case of “AATCTACCCCTGTCTTCTCCATTCAATCGTTCATCCTTTCCGGAGTCACCTAGTGCAG” it was 9070 fluorescence intensity (a.u.); in that of “CAGTTCACTATTCTTTCTGCTATATACATGTATGATTTTACGGAGTCACCTAGTGCAG”, 9000 fluorescence intensity (a.u.). Consider “TTCTGCGTGTGAGTGGGTTTTCTTCCTAGTGGTTTAAATACGGAGTCACCTAGTGCAG”, for which the binding signal is 12700 fluorescence intensity (a.u.).

In the case of “TCTGTCAGAATCATGTGTTTTTCCTATCCCTCCATTTTTTCGGAGTCACCTAGTGCAG”, the binding signal is 8410 fluorescence intensity (a.u.). Take “CGCCGTTTAGTTTTTACTAACGTTTGACCATTTTTCTTATCGGAGTCACCTAGTGCAG”: the binding signal is 11700 fluorescence intensity (a.u.).

For the sequence “AATGCCCGACCTCGATCATCATCTCACACGTTGCTCATCACGGAGTCACCTAGTGCAG”, the binding signal is 12400 fluorescence intensity (a.u.).

On to “CCAGCCACTTCCTCTCAACATCTTCTCATGTCTTTTTGTACGGAGTCACCTAGTGCAG”, for which the binding signal was 8360 fluorescence intensity (a.u.). In the case of “CGCATCCAACCCATCCTCACTTCTCAACTGATTCTCGTATCGGAGTCACCTAGTGCAG” it was 8810 fluorescence intensity (a.u.). In the case of “GACATGGATCCTACGTAGTACTGCAACATACCAAATTACCCGGAGTCACCTAGTGCAG” it was 9240 fluorescence intensity (a.u.).

“ACTACCTTTAAACGCTATGGTTTGGGACTGCTCTCATGTACGGAGTCACCTAGTGCAG”: the binding signal was 9010 fluorescence intensity (a.u.). The result for “CCTTGGGTGGGTACGGATTGGATTAGGGAGGGGAGCACAACGGAGTCACCTAGTGCAG” reads 17600 fluorescence intensity (a.u.); that for “TTCTGTCAATTCCTTTCACCATTTTCAGGCTGAATTTTGTCGGAGTCACCTAGTGCAG”, 9250 fluorescence intensity (a.u.); that for “CTCTTTACCAACACTATATAACCCGCAGTGGACCTGCAGTCGGAGTCACCTAGTGCAG”, 8060 fluorescence intensity (a.u.). In the case of “CCAATATTCTAAACATACATCCTAGCCATTTCAATTTTCACGGAGTCACCTAGTGCAG”, the binding signal is 8300 fluorescence intensity (a.u.).

For “GTGATGCCACCGCTATGTTGACCAAGTCTCGGCCAGCTTCCGGAGTCACCTAGTGCAG”, the binding signal is 12800 fluorescence intensity (a.u.). Consider “ATAAATTTAGCCTCTTTTGTTTAGTATTGCAACTACCAATCGGAGTCACCTAGTGCAG”, for which the binding signal was 9720 fluorescence intensity (a.u.). The result for “GCCCCACATGTCAGGTTGTTCACGTCATCACTCTCTTTCACGGAGTCACCTAGTGCAG” reads 14800 fluorescence intensity (a.u.); that for “AATGCAAGGACCACGCCGCCGACGAGCACCACCAGCCATGCGGAGTCACCTAGTGCAG”, 8430 fluorescence intensity (a.u.). With “TTTGCTTCTGTTGTTAACCGTGCACCGTGCGCATACATCACGGAGTCACCTAGTGCAG”, the binding signal was 10300 fluorescence intensity (a.u.). Turning to “TGCCGCGCGCCATTTCTCTCGCGTCAGAAGGTTGCAACGCCGGAGTCACCTAGTGCAG”, the binding signal is 9560 fluorescence intensity (a.u.). For “TTCTCCCGTGGTCGTCCAACTGTCCAACTGTACAGCCTGCCGGAGTCACCTAGTGCAG”, the binding signal is 8680 fluorescence intensity (a.u.).

For the sequence “TACTTGCTTTCTCCTGACTCTCAGCAAGAACATTAGTTATCGGAGTCACCTAGTGCAG”, the binding signal is 8800 fluorescence intensity (a.u.). In the case of “AGCGCTTGAATACACTCAACCGATCCAACATCCTCCACTTCGGAGTCACCTAGTGCAG” it was 8220 fluorescence intensity (a.u.). The result for “CGCCGCCGCACCACGCGCTCCACCCCTCTGCGACGTTGACCGGAGTCACCTAGTGCAG” reads 13800 fluorescence intensity (a.u.); that for “TTGGCATTATTAACTAGCTGCAGCGTCACATATTTCACTACGGAGTCACCTAGTGCAG”, 9930 fluorescence intensity (a.u.); that for “ACTGAGTATTATTATATCCTAACTAAGTTATCGTACATTCCGGAGTCACCTAGTGCAG”, 8060 fluorescence intensity (a.u.). For “CACAAACACATTCCGGCATCTATCGCAAGCCAAACCACCCCGGAGTCACCTAGTGCAG”, the binding signal was 8610 fluorescence intensity (a.u.). Consider “ATTCTACTATTGATTGATCATGTGTTTTAGTTATCACATCCGGAGTCACCTAGTGCAG”, for which the binding signal was 8020 fluorescence intensity (a.u.).

Turning to “GTCATATACACACAATTTTTCAGTCACATCGTACCAATTTCGGAGTCACCTAGTGCAG”, the binding signal was 10200 fluorescence intensity (a.u.). “ATTGCTTTTTTATATTGTAACATGATTTTACTTTCTTTTCCGGAGTCACCTAGTGCAG”: the binding signal was 10900 fluorescence intensity (a.u.). “ACCAGCCCGGTTGACCCTCCTGCTAGGTACAAGTGTTTTTCGGAGTCACCTAGTGCAG”: the binding signal is 10700 fluorescence intensity (a.u.).

For “GTCCACTACCCGCCACACCACCACCAGCCACATTTGATCCCGGAGTCACCTAGTGCAG”, the binding signal is 8330 fluorescence intensity (a.u.).
